Source: PubChem BioAssay AID288 (DTP/NCI, 2004)
The list does not hold the whole screen: it gathers some chemical classes. Not every dose and run of a compound is shown. T/C: endpoint of the treated group in % of that of the vehicle group. Schedule codes are those of the source, taken here to give the interval after Q, in days (D) or hours (H), and the number of doses after X. Some T/C values are marked as having no survivor count here; that says nothing about deaths at the dose. Some entries hold several experiments; the values are given in rising order. Where survival is the endpoint, the PubChem record calls one and a half times the control and up active, and a quarter to a half above the control has no call in these data; cut-offs in other NCI protocols can differ.

System: BDF1 mice, M5076 sarcoma s.c., survival/tumor T/C
Assay: NCI In Vivo Anticancer Drug Screen. Data for tumor model Sarcoma M5076 (subcutaneous) in B6D2F1 (BDF1) mice
Settings: vehicle: saline + alcohol
Procedure: The antitumor activity of compounds was measured in mice bearing transplantable tumors. Survival or tumor size were measured and the results are expressed as the measurement made in the treated group (T) divided by the measurement made in the vehicle treated control group (C). The tumor model used in this assay is Sarcoma M5076 (subcutaneous) in B6D2F1 (BDF1) mice

[1] = T/C endpoint: mean tumor weight, dose: 1.25 mg/kg/injection, schedule: Q02DX011 (ip), evaluated on day 22, higher T/C = larger tumour
[2] = T/C endpoint: median tumor weight (est.), dose: 1.25 mg/kg/injection, schedule: Q02DX011 (ip), evaluated on day 22, higher T/C = larger tumour

SMILES	T/C (T/C endpoint: mean tumor weight, dose: 0.63 mg/kg/injection, schedule: Q02DX011 (ip), evaluated on day 22, higher T/C = larger tumour)	T/C [1]	T/C (T/C endpoint: median tumor weight (est.), dose: 0.63 mg/kg/injection, schedule: Q02DX011 (ip), evaluated on day 22, higher T/C = larger tumour)	T/C [2]	T/C (T/C endpoint: mean tumor weight, dose: 1.3 mg/kg/injection, schedule: Q02DX011 (ip), evaluated on day 22, higher T/C = larger tumour)	T/C (T/C endpoint: median survival time, dose: 0.78 mg/kg/injection, schedule: Q04DX004 (ip), higher T/C = longer survival)	T/C (T/C endpoint: median survival time, dose: 0.78 mg/kg/injection, schedule: Q04DX004 (iv), higher T/C = longer survival)	T/C (T/C endpoint: median survival time, dose: 1.3 mg/kg/injection, schedule: Q04DX004 (ip), higher T/C = longer survival)	T/C (T/C endpoint: median survival time, dose: 1.3 mg/kg/injection, schedule: Q04DX004 (iv), higher T/C = longer survival)	T/C (T/C endpoint: median survival time, dose: 2.16 mg/kg/injection, schedule: Q04DX004 (ip), higher T/C = longer survival)	T/C (T/C endpoint: median survival time, dose: 2.16 mg/kg/injection, schedule: Q04DX004 (iv), higher T/C = longer survival)	T/C (T/C endpoint: median survival time, dose: 3.6 mg/kg/injection, schedule: Q04DX004 (ip), higher T/C = longer survival)	T/C (T/C endpoint: median survival time, dose: 3.6 mg/kg/injection, schedule: Q04DX004 (iv), higher T/C = longer survival)	T/C (T/C endpoint: median survival time, dose: 6.0 mg/kg/injection, schedule: Q04DX004 (ip), higher T/C = longer survival)	T/C (T/C endpoint: median survival time, dose: 6.0 mg/kg/injection, schedule: Q04DX004 (iv), higher T/C = longer survival)	T/C (T/C endpoint: median tumor weight (est.), dose: 1.3 mg/kg/injection, schedule: Q02DX011 (ip), evaluated on day 22, higher T/C = larger tumour)
CC(=O)OC[C@]12C[C@H](OC(=O)CC(C)C)C(C)=C[C@H]1OC1[C@H](O)[C@@H](OC(C)=O)[C@@]2(C)[C@@]12CO2	86 [survivor count not shown] and 141 % of control [survivor count not shown]	17 [survivor count not shown] and 35 % of control [survivor count not shown]	84 [survivor count not shown] and 87 % of control [survivor count not shown]	11 [survivor count not shown] and 14 % of control [survivor count not shown]	–	–	–	–	–	–	–	–	–	–	–	–
CC(=O)OCC12CCC(C)=CC1OC1C(O)C(OC(C)=O)C2(C)C12CO2 (stereo not drawn)	–	48 % of control [survivor count not shown]	–	70 % of control [survivor count not shown]	58 % of control [survivor count not shown]	97 % of control [survivor count not shown]	141 % of control [survivor count not shown]	100 % of control [survivor count not shown]	96 % of control [survivor count not shown]	106 % of control [survivor count not shown]	109 % of control [survivor count not shown]	120 % of control [survivor count not shown]	125 % of control [survivor count not shown]	138 % of control [survivor count not shown]	134 % of control [survivor count not shown]	52 % of control [survivor count not shown]
